According to patent publication US9132198B2, “Mitochondrial penetrating peptides as carriers for anticancer compounds” (priority 2011, dated 2015):
At least one compound was matched to its structure with a doubt left. Non-standard residues stand in square brackets, D forms with d. Residues, ends and D or L forms follow the SMILES beside them. *: point of attachment. Chlorambucil = O=C(CCCc1ccc(N(CCCl)CCCl)cc1)*; Cha = N[C@@H](CC1CCCCC1)C(=O)O

Tests used:
K562 cells = experiment: Analysis of toxicity, CCK-8 viability, leukemia panel: K562; details: read-out: LC50; K562 cell line, overnight incubation
HL60 cells = experiment: Analysis of toxicity, CCK-8 viability, leukemia panel: HL60; details: read-out: LC50; HL60 cell line, overnight incubation
M2 (OCI-M2) cells = experiment: Analysis of toxicity, CCK-8 viability, leukemia panel: M2; details: read-out: LC50; M2 cell line, overnight incubation
LY17 cells = experiment: Analysis of toxicity, CCK-8 viability, leukemia panel: LY17; details: read-out: LC50; LY17 cell line, overnight incubation
AML2 (OCI-AML2) cells = experiment: Analysis of toxicity, CCK-8 viability, leukemia panel: AML2; details: read-out: LC50; AML2 cell line, overnight incubation
DAUDI cells = experiment: Analysis of toxicity, CCK-8 viability, leukemia panel: DAUDI; details: read-out: LC50; DAUDI cell line, overnight incubation
U937 cells = experiment: Analysis of toxicity, CCK-8 viability, leukemia panel: U937; details: read-out: LC50; U937 cell line, overnight incubation

## CC(=O)N[C@@H](CC1CCCCC1)C(=O)N[C@H](CCCNC(=N)N)C(=O)N[C@@H](CC1CCCCC1)C(=O)N[C@H](CCCNC(=N)N)C(=O)N[C@@H](CC1CCCCC1)C(=O)N[C@H](CCCNC(=N)N)C(=O)N[C@H](CCCCNC(=O)CCCc1ccc(N(CCCl)CCCl)cc1)C(N)=O [MPP-Cbl, Ac-FxrFxrFxrk-Cbl] (Ac-[Cha][dR][Cha][dR][Cha][dR][dK](Chlorambucil)-NH2)
K562 cells
  CC50: 8.7 ± 0.4 µM
HL60 cells
  CC50: 6.8 ± 0.6 µM
M2 (OCI-M2) cells
  CC50: 7.5 ± 1 µM
LY17 cells
  CC50: 8.3 ± 1 µM
AML2 (OCI-AML2) cells
  CC50: 6.4 ± 0.4 µM
DAUDI cells
  CC50: 9.8 ± 0.8 µM
U937 cells
  CC50: 5.9 ± 0.7 µM
